Measured values taken from publication PMC8270999.

Target: T1, HA-tagged human GLDC (human) (UniProt P23378)
T1 sequence: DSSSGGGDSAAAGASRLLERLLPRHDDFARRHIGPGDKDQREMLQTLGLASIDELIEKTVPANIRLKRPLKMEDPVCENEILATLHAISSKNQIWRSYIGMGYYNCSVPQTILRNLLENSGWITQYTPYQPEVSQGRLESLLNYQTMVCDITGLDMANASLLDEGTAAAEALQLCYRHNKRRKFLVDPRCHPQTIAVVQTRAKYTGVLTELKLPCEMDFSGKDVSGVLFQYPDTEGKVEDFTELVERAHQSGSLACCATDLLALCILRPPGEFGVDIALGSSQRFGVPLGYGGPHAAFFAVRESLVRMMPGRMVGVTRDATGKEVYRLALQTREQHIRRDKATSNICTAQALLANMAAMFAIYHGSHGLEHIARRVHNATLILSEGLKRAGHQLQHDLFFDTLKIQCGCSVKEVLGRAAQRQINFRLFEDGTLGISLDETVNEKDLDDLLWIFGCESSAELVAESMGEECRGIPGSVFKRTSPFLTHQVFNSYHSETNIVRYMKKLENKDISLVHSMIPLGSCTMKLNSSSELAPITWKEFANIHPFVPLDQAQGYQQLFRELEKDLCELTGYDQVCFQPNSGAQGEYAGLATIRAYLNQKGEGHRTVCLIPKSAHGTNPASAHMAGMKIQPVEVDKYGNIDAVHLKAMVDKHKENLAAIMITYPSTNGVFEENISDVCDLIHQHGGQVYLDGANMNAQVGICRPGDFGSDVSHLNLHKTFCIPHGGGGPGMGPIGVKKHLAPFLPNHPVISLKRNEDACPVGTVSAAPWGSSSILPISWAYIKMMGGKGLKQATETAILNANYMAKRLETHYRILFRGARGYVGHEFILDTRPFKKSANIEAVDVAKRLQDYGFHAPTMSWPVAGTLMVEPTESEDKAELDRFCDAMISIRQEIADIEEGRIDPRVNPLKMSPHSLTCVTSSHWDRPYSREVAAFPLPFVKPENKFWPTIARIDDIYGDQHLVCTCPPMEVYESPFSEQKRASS
Assay: affinity purification with mass spectrometry; HA-tagged human GLDC expressed in HEK293 cells (1 x 10^8), immunoprecipitated with anti-HA, desalted, bound proteins analysed by MS

binding: binds
B1: endogenous NF-X1 (enzyme, UniProt Q12986 1-1120)
chain: MAEAPPVSGTFKFNTDAAEFIPQEKKNSGLNCGTQRRLDSNRIGRRNYSSPPPCHLSRQVPYDEISAVHQHSYHPSGSKPKSQQTSFQSSPCNKSPKSHGLQNQPWQKLRNEKHHIRVKKAQSLAEQTSDTAGLESSTRSESGTDLREHSPSESEKEVVGADPRGAKPKKATQFVYSYGRGPKVKGKLKCEWSNRTTPKPEDAGPESTKPVGVFHPDSSEASSRKGVLDGYGARRNEQRRYPQKRPPWEVEGARPRPGRNPPKQEGHRHTNAGHRNNMGPIPKDDLNERPAKSTCDSENLAVINKSSRRVDQEKCTVRRQDPQVVSPFSRGKQNHVLKNVETHTGSLIEQLTTEKYECMVCCELVRVTAPVWSCQSCYHVFHLNCIKKWARSPASQADGQSGWRCPACQNVSAHVPNTYTCFCGKVKNPEWSRNEIPHSCGEVCRKKQPGQDCPHSCNLLCHPGPCPPCPAFMTKTCECGRTRHTVRCGQAVSVHCSNPCENILNCGQHQCAELCHGGQCQPCQIILNQVCYCGSTSRDVLCGTDVGKSDGFGDFSCLKICGKDLKCGNHTCSQVCHPQPCQQCPRLPQLVRCCPCGQTPLSQLLELGSSSRKTCMDPVPSCGKVCGKPLPCGSLDFIHTCEKLCHEGDCGPCSRTSVISCRCSFRTKELPCTSLKSEDATFMCDKRCNKKRLCGRHKCNEICCVDKEHKCPLICGRKLRCGLHRCEEPCHRGNCQTCWQASFDELTCHCGASVIYPPVPCGTRPPECTQTCARVHECDHPVYHSCHSEEKCPPCTFLTQKWCMGKHEFRSNIPCHLVDISCGLPCSATLPCGMHKCQRLCHKGECLVDEPCKQPCTTPRADCGHPCMAPCHTSSPCPVTACKAKVELQCECGRRKEMVICSEASSTYQRIAAISMASKITDMQLGGSVEISKLITKKEVHQARLECDEECSALERKKRLAEAFHISEDSDPFNIRSSGSKFSDSLKEDARKDLKFVSDVEKEMETLVEAVNKGKNSKKSHSFPPMNRDHRRIIHDLAQVYGLESVSYDSEPKRNVVVTAIRGKSVCPPTTLTGVLEREMQARPPPPIPHHRHQSDKNPGSSNLQKITKEPIIDYFDVQD

Results are given in words; binding and its absence hold for the method and conditions named. In cells and extracts the contact can be indirect. A yes stands for co-enrichment or nearness to the bait. Other partners may have been found. Where a sequence is shown, tags or fusion partners need not be part of it.
